PMC5448152
No constants are given. Whether binding was seen depends on the method and setting. In cells and extracts the contact can be indirect. Some results given as binding are weak or reduced against the parent protein; the word gives no strength.

Amino acid sequences for entries named in this document (tags omitted).
UniProt O77059: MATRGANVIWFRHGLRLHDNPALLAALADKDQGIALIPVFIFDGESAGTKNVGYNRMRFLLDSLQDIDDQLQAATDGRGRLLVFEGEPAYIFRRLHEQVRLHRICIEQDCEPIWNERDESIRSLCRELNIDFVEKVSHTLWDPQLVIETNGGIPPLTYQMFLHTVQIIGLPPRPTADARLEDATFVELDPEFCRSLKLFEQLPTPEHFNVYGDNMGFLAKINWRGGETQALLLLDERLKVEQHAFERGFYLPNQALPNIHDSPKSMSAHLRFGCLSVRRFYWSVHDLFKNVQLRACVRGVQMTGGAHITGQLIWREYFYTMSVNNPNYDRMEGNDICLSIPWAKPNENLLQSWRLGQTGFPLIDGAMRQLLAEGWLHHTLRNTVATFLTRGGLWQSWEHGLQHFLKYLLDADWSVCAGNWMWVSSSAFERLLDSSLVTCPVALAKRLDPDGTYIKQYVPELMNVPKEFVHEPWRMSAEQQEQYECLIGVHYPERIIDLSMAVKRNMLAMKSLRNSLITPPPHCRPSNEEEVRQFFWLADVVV

Molecular target: hemagglutinin (HA) tagged CRY (Drosophila melanogaster) (UniProt O77059)
Experiment: co-IP; HACRY precipitated with α-HA antibodies from whole head extracts of tim-GAL4 > HACRY flies collected at ZT24 (dark) and ZT24 + 15 min light; Western blot probed with nc82; stronger under light

B1: BRUCHPILOT (BRP), 170 kDa isoform, endogenous (protein, UniProt A0A0B4K7K9-3 1-1397)
chain: MDNAYVYYKLDEFRLEIQRRDQEILAMAAKMKTLEEQHQRHIAVLKESLCAKEEHYNMLQTDVEEMRARLEEKNRLIEKKTQGTLQTVQERNRLTSELTELKDHMDIKDRKISVLQRKIENLEDLLKEKDNQVDMARARLSAMQAHHSSSEGALTSLEEAIGDKEKQMAQLRDQRDRAEHEKQEERDLHEREVADYKIKLRAAESEVEKLQTRLERAVTERERLEIKLEASQSELGKSKAELEKATCEMGRSSADWESTKQRIARLELENERLKHDLERSQMQLEEQTTLHKTTFGRTTMTTSQELDRAQERADKASAELRRTQAELRVTQSDAERAREEAAALQEKLEKSQGEVYRLKAKLENAQGEQESLRQELEKAQSGVSRIHADRDRAFSEVEKIKEEMERTQATLGKSQLQHEKLQNSLDKAQNEVDHLQDKLDKACTENRRLVLEKEKLTYDYDNLQSQLDKALGQAARMQKERETLSLDTDRIREKLEKTQMERDDAVTEVEILKEKLDKALYASQKLIDEKDTSNKEFEKMLEKYDRAQNEIYRLQSRCDTAEADRARLEVEAERSGLAASKAREDLRKLQDESTRLQEACDRAALQLSRAKECEDNARSELEHSRDRFDKLQTDIRRAQGEKEHFQSELERVTYELERAHAAQTKASASVEAAKEEAAHYAVELEKMRDRYEKSQVELRKLQDTDTFGRETRRLKEENERLREKLDKTLMELETIRGKSQYESESFEKYKDKYEKIEMEVQNMESKLHETSLQLELSKGEVAKMLANQEKQRSELERAHIEREKARDKHEKLLKEVDRLRLQQSSVSPGDPVRASTSSSSALSAGERQEIDRLRDRLEKALQSRDATELEAGRLAKELEKAQMHLAKQQENTESTRIEFERMGAELGRLHDRLEKAEAEREALRQANRSGGAGAAPHPQLEKHVQKLESDVKQLAMEREQLVLQLEKSQEILMNFQKELQNAEAELQKTREENRKLRNGHQVPPVAAPPAGPSPAEFQAMQKEIQTLQQKLQESERALQAAGPQQAQAAAAAGASREEIEQWRKVIEQEKSRADMADKAAQEMHKRIQLMDQHIKDQHAQMQKMQQQMQQQQQAAQQAVQQAAQQQQSAAGAGGADPKELEKVRGELQAACTERDRFQQQLELLVTELEKSKMSNQEQAKQLQTAQQQVQQLQQQVQQLQQQMQQLQQAASAGAGATDVQRQQLEQQQKQLEEVRKQIDNQAKATEGERKIIDEQRKQIDAKRKDIEEKEKKMAEFDVQLRKRKEQMDQLEKSLQTQGGGAAAAGELNKKLMDTQRQLEACVKELQNTKEEHKKAATETERLLQLVQMSQEEQNAKEKTIMDLQQALKIAQAKVKQAQTQQQQQQDAGPAGFLKSFF
B1 was tested, and the binding was “binds”.
